Results: PubChem BioAssay AID1347076 (National Center for Advancing Translational Sciences (NCATS), 2019)
Hit rate of the full screen: of about 400,000 compounds, about 13,000 (3.2%) were called active. The shares of active, inactive and inconclusive entries below differ from those in the screen. Calls follow the shape of the dose curve; as a rule, active = well fitted cell-killing curve with a large enough effect; inconclusive = small, poorly fitted or top-dose-only effect, or effect the other way; inactive = flat fitted curve, though single readings scatter. Where the call is inconclusive, the potency comes from a doubtful curve fit.

Test: qHTS assay for MDR1-selective chemotherapeutics: Primary screen using the drug-selected MDR subline cells KB-V1; also: nearly all actives have a fitted effect of over 60% in size
Details: KB-V1 MDR cells viability, CellTiter-Glo, 72 h; activity change, negative = cytotoxicity: at 46.1 µM (top of the series)
Summary of the method: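 Compound-treated KB-V1 multidrug-resistant cells, 72 h, 37 degrees C; viability by CellTiter-Glo. Fitted qHTS curves give the values.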
% is scaled to controls: 0 for no effect and ±100 for the full control effect; potency is read from the fitted curve at half-maximal effect.

SMILES	Potency	activity change, negative = cytotoxicity
O=C(Nc1ccc(N2CCN(C(=O)c3ccccc3)CC2)c(Cl)c1)c1cccnc1	inconclusive: 18.4 µM [cytotoxic, single point]	–
c1ccc(CNc2c3ccccc3nc3ccccc23)cc1	inconclusive: 29.1 µM [cytotoxic, single point]	–
Cc1cc(C)c(S(=O)(=O)N2CCN(C(=O)c3ccc4c(c3)OCO4)CC2)c(C)c1	inconclusive: 18.4 µM [cytotoxic, partial curve]	–
COc1ccc(N(C(=O)C2CCCCC2)S(=O)(=O)c2cccc3cccnc23)cc1	inconclusive: 0.0058 µM [rising, full curve, poor fit]	–
CN(C)CCNC(C(=O)Nc1cccc(S(=O)(=O)N2CCOCC2)c1)c1ccccc1 (configuration not stated)	inconclusive: 13 µM [rising, partial curve]	–
CCc1ccc(O)c(CNCCNCc2cc(CC)ccc2O)c1	inconclusive: 20.6 µM [cytotoxic, single point]	–
O=C(O)c1cc(-n2c(/C=C\c3ccc(F)cc3)nc3ccccc3c2=O)ccc1Cl	inconclusive: 20.6 µM [cytotoxic, single point]	–
CCOC(=O)[C@]12CCCC=C1N(Cc1ccccc1)C(=O)[C@H](CC(=O)N1CCCCCC1)C2	inconclusive: 2.06 µM [cytotoxic, full curve]	–
COc1ccc(-c2nnc(SCc3nc4ccccc4s3)n2C(C)C)cc1	inconclusive: 18.4 µM [cytotoxic, partial curve]	–
CCC(C)(C)NC(=O)CN(C(=O)C(=O)Nc1ccc2c(c1)OCCO2)C1CC1	inconclusive: 8.2 µM [cytotoxic, partial curve]	–
Nc1ccc(Sc2nc3ccccc3[nH]2)cc1	inactive	–
Cc1ccc(S(=O)(=O)CCNC(=O)Cc2ccc(Cl)cc2)cc1	inconclusive: 23.1 µM [cytotoxic, single point]	–
Cc1ccc(Cc2nc3ccccc3nc2SCC(=O)Nc2ccc3c(c2)OCO3)cc1	inactive	–
Cn1nnnc1Sc1ncnc2scc(-c3ccc(F)cc3)c12	inconclusive: 8.2 µM [cytotoxic, partial curve, poor fit]	–
O=C(NC1CCCCC1)c1sc(N2CCOCC2)nc1-c1ccccc1	inactive	–
CNc1ccc2ncc(-c3cccc(C(=O)N(C)C)c3)n2n1	inconclusive: 25.9 µM [cytotoxic, single point]	–
C(=N\n1cnnc1)/c1cn(Cc2ccccc2)c2ccccc12	active: 14.6 µM	–
Cc1cc2cc(CN(Cc3nnnn3C3CCCCC3)CC3CCCO3)c(=O)[nH]c2cc1C (configuration not stated)	inconclusive: 5.8 µM [cytotoxic, full curve]	–
COc1ccc(C)cc1-n1cnc2sc(C)c(C)c2c1=O	inconclusive: 29.1 µM [cytotoxic, single point]	–
Cc1ccccc1NC(=O)NCc1cccnc1	inconclusive: 7.31 µM [rising, partial curve]	–
O=C(CSC1=NC2(CCCCC2)N=C1c1ccccc1)Nc1ccc2c(c1)OCCO2	inactive	–
O=C(O)/C=C/c1ccc([N+](=O)[O-])o1	inactive	–
Nc1ccc(C(=O)N2CCN(S(=O)(=O)c3ccc4c(c3)OCCCO4)CC2)cc1[N+](=O)[O-]	inconclusive: 29.1 µM [cytotoxic, single point]	–

SMILES	Potency	activity change, negative = cytotoxicity
Nc1nc(-c2ccccc2)c(N=Nc2cccc3ccccc23)s1	inconclusive: 18.4 µM [cytotoxic, single point]	–
OC(CNCc1ccco1)COc1ccccc1 (configuration not stated)	active: 0.0018 µM	–
COc1cccc(NC(=S)NC(=O)Cc2ccc(Cl)cc2)c1	inactive	–
COc1ccc(C2=NOC(C(=O)Nc3ccc(C(C)=O)cc3)C2)cc1OC (configuration not stated)	active: 14.6 µM	–
O=c1c2ccccc2nc(COc2ccccc2)n1/N=C/c1ccc(O)c(O)c1	inconclusive: 6.51 µM [cytotoxic, partial curve]	–
O=C(CSc1ccc(-c2ccccn2)nn1)NCc1ccccc1	inconclusive: 20.6 µM [cytotoxic, single point]	–
COc1cc(/C=C/C(=O)c2cccc([N+](=O)[O-])c2)cc(OC)c1OC	inconclusive: 18.4 µM [cytotoxic, single point]	–
CN(c1ccccc1)S(=O)(=O)c1cccc(NC(=O)c2cc(=O)c3ccccc3o2)c1	–	inconclusive: -20.7%
CCC(C(=O)Nc1ccc(C(=O)N2CCCC2)cc1)c1ccccc1 (configuration not stated)	inconclusive: 13 µM [cytotoxic, partial curve]	–
CN(C)CC(C(=O)c1ccccc1)c1ccccc1 (configuration not stated)	inconclusive: 29.1 µM [cytotoxic, single point]	–
COc1ccc2c(c1OC)C(=O)O[C@@H]2[C@H]1c2c(cc3c(c2OC)OCO3)CCN1C	inconclusive: 18.4 µM [cytotoxic, single point]	–
COc1cccc(O)c1CN1CCCC(C(=O)c2cccc(C(F)(F)F)c2)C1 (configuration not stated)	inconclusive: 0.259 µM [cytotoxic, full curve]	–
CCOc1ccc(-n2c(SCC(=O)N3CCOCC3)nc3c([nH]c4ccccc43)c2=O)cc1	inconclusive: 29.1 µM [rising, single point]	–
CC(C)(C)Nc1nc(N)nc(Cl)n1	inconclusive: 16.4 µM [rising, single point]	–
O=S(=O)(Nc1ccccc1OC(F)F)c1ccc(S(=O)(=O)N2CCCC2)cc1	active: 18.4 µM	–
CCOC(=O)c1c(NC(=O)COc2ccccc2C#N)sc2c1CC(C)(C)NC2(C)C	inconclusive: 29.1 µM [cytotoxic, single point]	–
COc1ccc(OC)c(/C=C/C(=O)OCC(=O)NCc2ccccc2)c1	inactive	–
CCCC(=O)N1CCN(c2nc3c(OC)ccc(C)c3s2)CC1	inactive	–
Cc1ccc(-n2nc(C)c(NC(=O)CCl)c2C)cc1	inconclusive: 18.4 µM [cytotoxic, single point]	–
CCn1c(CSc2nc3ccccc3s2)nnc1SCC(=O)c1ccc(Cl)cc1	inactive	–
Cc1ccc(S(=O)(=O)N(C)CC(=O)NNC(=O)Cc2cccc(F)c2)cc1	inconclusive: 29.1 µM [cytotoxic, single point]	–
CCCC(=O)Nc1cc(Cl)ccc1N1CCN(C(=O)CC)CC1	inconclusive: 7.31 µM [cytotoxic, partial curve, poor fit]	–
CN(C(=O)c1cc(-n2cnnc2)ccc1Cl)c1ccccc1	inactive	–

For reference, part of the list above.
SMILES	Potency	activity change, negative = cytotoxicity
COc1ccc(N(C(=O)C2CCCCC2)S(=O)(=O)c2cccc3cccnc23)cc1	inconclusive: 0.0058 µM [rising, full curve, poor fit]	–
CN(C)CCNC(C(=O)Nc1cccc(S(=O)(=O)N2CCOCC2)c1)c1ccccc1 (configuration not stated)	inconclusive: 13 µM [rising, partial curve]	–
CCc1ccc(O)c(CNCCNCc2cc(CC)ccc2O)c1	inconclusive: 20.6 µM [cytotoxic, single point]	–
O=C(O)c1cc(-n2c(/C=C\c3ccc(F)cc3)nc3ccccc3c2=O)ccc1Cl	inconclusive: 20.6 µM [cytotoxic, single point]	–
CCOC(=O)[C@]12CCCC=C1N(Cc1ccccc1)C(=O)[C@H](CC(=O)N1CCCCCC1)C2	inconclusive: 2.06 µM [cytotoxic, full curve]	–

The results go on:

SMILES	Potency	activity change, negative = cytotoxicity
N#Cc1nc(-c2cccs2)oc1NCc1ccc(Cl)cc1	inconclusive: 20.6 µM [cytotoxic, single point]	–
O=C(Nc1cccc(F)c1)c1ccc2snnc2c1	inconclusive: 29.1 µM [cytotoxic, single point]	–
CCN(CC)c1ccc(NC(=O)c2cccc(C)c2)cc1S(=O)(=O)Nc1ccccc1OC	inconclusive: 3.66 µM [cytotoxic, full curve]	–
CC1CC(C)(C)NC(=S)N1CCCC(=O)Nc1ccc(Br)cc1 (configuration not stated)	active: 23.1 µM	–
Cc1ccc(Cl)cc1-n1ncc2c(NC3CCCCCC3)ncnc21	inconclusive: 29.1 µM [cytotoxic, single point]	–
Cc1ccc(-n2nc(C(=O)N3CCC(C)CC3)c(=O)n(C)c2=O)cc1	inconclusive: 13 µM [rising, partial curve, poor fit]	–
Cc1cccc(C(=O)OCC(=O)N2c3ccccc3CC2C)c1C (configuration not stated)	inactive	–
O=C(COC(=O)c1oc2ccccc2c1COc1ccccc1)NCCN1C(=O)CSC1=O	inconclusive: 14.6 µM [cytotoxic, partial curve]	–
CCCCn1c(N)c(N(CCOC)C(=O)COC(=O)CSc2cc(C)c3ccccc3n2)c(=O)[nH]c1=O	inactive	–
COc1ccc([C@@H]2C[C@H]3[C@@H](CN2S(=O)(=O)c2ccccc2)C(=O)C[C@@H](c2ccc(OC)cc2)N3S(=O)(=O)c2ccccc2)cc1	inactive	–
O=C1c2ccccc2C2(c3ccccc3)N1CCN2C(=O)C(Cl)(Cl)Cl (configuration not stated)	active: 16.4 µM	–
CS(=O)(=O)N1CCN(c2ccccc2NC(=S)NC(=O)c2ccccc2[N+](=O)[O-])CC1	inconclusive: 10.3 µM [cytotoxic, partial curve, poor fit]	–
COC(=O)c1ccc(OCCOCCOc2cccc3ccc(C)nc23)cc1	active: 14.6 µM	–
COc1ccc(OCc2cc(C(=O)N3CCCC(OC)C3)no2)c2ccccc12 (configuration not stated)	inconclusive: 10.3 µM [cytotoxic, partial curve]	–
CCN1C(=NCCOC)N[C@@H](c2cccs2)C(C(=O)OC)=C1C	inconclusive: 16.4 µM [rising, partial curve]	–
Cc1noc(C)c1COc1ccccc1C(=O)N1CCN(S(=O)(=O)c2cccc(Cl)c2)CC1	inconclusive: 6.51 µM [cytotoxic, partial curve, poor fit]	–
COc1ccc(C)cc1NC(=O)C1CCCN(S(=O)(=O)c2ccc(-n3cnnn3)cc2)C1 (configuration not stated)	inconclusive: 9.2 µM [cytotoxic, partial curve]	–
COc1ccc(S(=O)(=O)NCC(c2ccc(F)cc2)N2CCN(C)CC2)cc1 (configuration not stated)	inconclusive: 9.2 µM [cytotoxic, partial curve, poor fit]	–
CC12CC3(C)CC(C)(C1)CC(C(=O)NCc1cccnc1)(C2)C3	inconclusive: 16.4 µM [cytotoxic, single point]	–
O=C1CCCc2[nH]c3cccc(/C(=C/c4ccccc4)c4ccccc4)c3c21	inconclusive: 1.3 µM [cytotoxic, full curve]	–
Cc1ccc(C(=O)NC2(C(F)(F)F)C(=O)Nc3c2c(=O)[nH]c(=O)n3CCc2ccccc2)cc1 (configuration not stated)	inconclusive: 29.1 µM [rising, single point]	–
